{"source": "PubChem BioAssay AID1224826 (NIAID, 2016)", "purpose": "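Knock-downs that raise or lower Tnf reporter signal after endotoxin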 (primary screen)", "cell system": "RAW264.7 G9 macrophages from mouse bearing reporters for p65 (GFP) and the Tnf promoter (mCherry)", "knock-down reagent": "siRNA pool against mouse genes, 100 nM", "time to read-out": "16 h of LPS stimulation, after 2 days of siRNA transfection", "conditions": "bacterial lipopolysaccharide (Salmonella minnesota R595), 10 ng/ml", "detection": "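Nuclear mCherry signal of the Tnf promoter reporter measured by imaging after background removal, scaled to each plate median and turned into robust z-scores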", "reading the numbers": "Tnf reporter robust z-score: higher = stronger Tnf promoter reporter signal after LPS", "hit rule": "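a well counts as active at a score of -1.3 or below (Tlr4 knock-down control median) or above 3 (raised signal); controls and wells holding fewer than 50 cells are excluded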", "calls": "active = Tnf reporter clearly lowered or raised; inactive = no clear change in Tnf reporter", "note": "The whole screen tested about 17,000 reagents; shown is an unselected part. In the full data, about 1,110 (6.6%) got an active call. 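Active means lowered or raised reporter signal; replicate intensities are raw and not normalised per plate.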 Entries without a mark were called inactive. Further read-outs or replicates are left out here. Reagent sequences are not shown."}
{"gene":"Slc16a4 (GeneID 229699)","Tnf reporter robust z-score":1.92,"fewer than 50 cells in well":"enough cells in well"}
{"gene":"Myf5 (GeneID 17877)","Tnf reporter robust z-score":-0.09,"fewer than 50 cells in well":"enough cells in well"}
{"gene":"Hes1 (GeneID 15205)","Tnf reporter robust z-score":-0.57,"fewer than 50 cells in well":"enough cells in well"}
{"gene":"Hsd11b2 (GeneID 15484)","Tnf reporter robust z-score":0.35,"fewer than 50 cells in well":"enough cells in well"}
{"gene":"Mindy3 (GeneID 66960)","fewer than 50 cells in well":"fewer than 50 cells per well; well left out of calls"}
{"gene":"Arhgap35 (GeneID 232906)","Tnf reporter robust z-score":0.37,"fewer than 50 cells in well":"enough cells in well"}
{"gene":"Rep15 (GeneID 66532)","fewer than 50 cells in well":"fewer than 50 cells per well; well left out of calls"}
{"gene":"Pilrb1 (GeneID 170741)","fewer than 50 cells in well":"fewer than 50 cells per well; well left out of calls"}
{"gene":"Tmem91 (GeneID 320208)","Tnf reporter robust z-score":-0.99,"fewer than 50 cells in well":"enough cells in well"}
{"gene":"Jam2 (GeneID 67374)","Tnf reporter robust z-score":0.86,"fewer than 50 cells in well":"enough cells in well"}
{"gene":"Emc2 (GeneID 66736)","Tnf reporter robust z-score":1.89,"fewer than 50 cells in well":"enough cells in well"}
{"gene":"Smim10l2a (GeneID 320237)","Tnf reporter robust z-score":0.73,"fewer than 50 cells in well":"enough cells in well"}
